Experiment: cells
Format: functional, tissue-based, UKE-1
Conditions: Homo sapiens, UKE1, 72 h

`C[C@@H]1CCN(C(=O)CC#N)C[C@@H]1N(C)c1ncnc2[nH]ccc12` [TOFACITINIB] gave an IC50 of 910 nM.

— ChEMBL document CHEMBL4706688 (J Med Chem, 2021)
